In ChEMBL document CHEMBL4513141, “CO-ADD screening of NIH (USA) - Clinical Collection” (2021):
Where “and” joins values, the source holds several entries; their conditions need not be identical. Equal entries are not always repeated. The list shows a part of the results. Potency and affinity values are given separately.

System: Acinetobacter baumannii
Settings: Concentration 20 uM, ASSAY_TEST Inhibition of Bacterial Growth, detection method Absorption (OD600), MEDIA CAMHB, plate type 384well, NBS, CORNING #3640, time 18 hr

SMILES | Inhibition | Inhibition (20 µM)
CC(=O)C1(O)CCC2C3CC(C)C4=CC(=O)C=CC4(C)C3(F)C(O)CC21C (configuration not stated) | 4.6% | –
Cc1ccsc1C(=CCCN1CCC[C@@H](C(=O)O)C1)c1sccc1C.Cl [TIAGABINE HYDROCHLORIDE] | 20.44% | –
CC(C)(C(=O)c1cccnc1)c1cccnc1 [METYRAPONE] | 20.43% | –
Cn1ccnc1S [METHIMAZOLE] | 27.8% | –
NNCCc1ccccc1.O=S(=O)(O)O [PHENELZINE SULFATE] | 2.03% | –
COc1ccccc1N1CCN(CC(O)COc2cccc3ccccc23)CC1 (configuration not stated) [NAFTOPIDIL] | 5.99% | –
Cl.O.c1cnc(N2CCN(Cc3ccc4c(c3)OCO4)CC2)nc1 | 13.76% | –
Nc1nc(N)nc(-c2cc(Cl)ccc2Cl)n1.O=C(O)/C=C\C(=O)O [IRSOGLADINE MALEATE] | 14.74% | –
CN1CC(=O)N2[C@H](c3ccc4c(c3)OCO4)c3[nH]c4ccccc4c3C[C@@H]2C1=O | 22.42% | –
Cl.O.O=C1N(c2ccccc2)c2ccccc2C1(Cc1ccncc1)Cc1ccncc1 | 3.98% | –
CCCCCCCCCCC[C@@H](C[C@@H]1OC(=O)[C@H]1CCCCCC)OC(=O)[C@H](CC(C)C)NC=O [ORLISTAT] | 17.79% | –
CC(N)(Cc1ccc(O)c(O)c1)C(=O)O (stereo not drawn) [METHYLDOPA (RACEMIC)] | 10.65% | –
CCN(CC)CCOc1ccc(C(=C(Cl)c2ccccc2)c2ccccc2)cc1.O=C(O)CC(O)(CC(=O)O)C(=O)O [CLOMIPHENE CITRATE] | 26.88% | –
CC(Cc1ccc(O)c(O)c1)(NN)C(=O)O.O (configuration not stated) | 23.28% | –
Cc1[nH]c(=O)c(C#N)cc1-c1ccncc1 [MILRINONE] | 26.3% | –
CS(=O)(=O)c1ccc(C2=C(c3ccccc3)C(=O)OC2)cc1 [ROFECOXIB] | 21.66% | –
C#C[C@]1(O)CC[C@H]2[C@@H]3CCC4=CC(=O)CC[C@@H]4[C@H]3CC[C@@]21CC [LEVONORGESTREL] | 31.67% | –
CC[C@@]1(O)C(=O)OCc2c1cc1n(c2=O)Cc2cc3c(CN(C)C)c(O)ccc3nc2-1.Cl [TOPOTECAN HYDROCHLORIDE] | 31.27% | –
Cc1ncc([N+](=O)[O-])n1CC(O)CCl (configuration not stated) [ORNIDAZOLE] | 23.52% | –
CN(C)CCCN1c2ccccc2Sc2ccc(Cl)cc21.Cl [CHLORPROMAZINE HYDROCHLORIDE] | 24.94% | –
CN1C(C(=O)Nc2ccccn2)=C(O)c2ccccc2S1(=O)=O.O | 15.76% | –

Reformatted in CSV form: two of the compounds above
SMILES,Inhibition,Inhibition (20 µM)
CC(C)(C(=O)c1cccnc1)c1cccnc1 [METYRAPONE],20.43%,–
Cl.O.O=C1N(c2ccccc2)c2ccccc2C1(Cc1ccncc1)Cc1ccncc1,3.98%,–

Next entries follow.

SMILES | Inhibition | Inhibition (20 µM)
CCCCC1=NC2(CCCC2)C(=O)N1Cc1ccc(-c2ccccc2-c2nnn[nH]2)cc1 [IRBESARTAN] | 6.33% | –
CC(C)NCC(O)c1ccc(NS(C)(=O)=O)cc1.Cl (configuration not stated) [SOTALOL HYDROCHLORIDE] | 14.12% | –
C[C@@H]1C[C@H]2[C@@H]3CCC4=CC(=O)C=C[C@]4(C)[C@@]3(F)[C@@H](O)C[C@]2(C)[C@@]1(O)C(=O)CO [DEXAMETHASONE] | – | 8.59% and 9.81%
C[C@@H]1C[C@H]2[C@@H]3CCC4=CC(=O)C=C[C@]4(C)[C@@]3(F)[C@@H](O)C[C@]2(C)[C@H]1C(=O)CO [DESOXIMETASONE] | -0.17% | –
CN(C)CCCN1c2ccccc2CCc2ccccc21.Cl [IMIPRAMINE HYDROCHLORIDE] | 4.65% | –
CC(=O)O[C@@]12CO[C@@H]1C[C@H](O)[C@@]1(C)C(=O)[C@H](O)C3=C(C)[C@@H](OC(=O)[C@H](O)[C@@H](NC(=O)OC(C)(C)C)c4ccccc4)C[C@](O)([C@@H](OC(=O)c4ccccc4)[C@H]21)C3(C)C | 21.28% | –
COc1cc(C(=O)NS(=O)(=O)c2ccccc2C)ccc1Cc1cn(C)c2ccc(NC(=O)OC3CCCC3)cc12 [ZAFIRLUKAST] | 20.95% | –
C[C@H]1[C@@H](OC(=O)CCC(=O)O)O[C@@H]2O[C@@]3(C)CC[C@H]4[C@H](C)CC[C@@H]1[C@@]24OO3 | 5.9% | –
COc1ccc(CC2c3cc(OC)c(OC)cc3CC[N+]2(C)CCC(=O)OCCCCCOC(=O)CC[N+]2(C)CCc3cc(OC)c(OC)cc3C2Cc2ccc(OC)c(OC)c2)cc1OC.O=S(=O)(O)c1ccccc1 (configuration not stated) | 12.39% | –
NS(=O)(=O)c1cc(C(=O)O)c(NCc2ccco2)cc1Cl [FUROSEMIDE] | 25.01% | –
CC1(C)O[C@@H]2C[C@H]3[C@@H]4CCC5=CC(=O)C=C[C@]5(C)[C@@]4(F)[C@@H](O)C[C@]3(C)[C@]2(C(=O)CO)O1 [TRIAMCINOLONE ACETONIDE] | 28.78% | –
CCC1=C[C@H]2CN(C1)Cc1c([nH]c3ccccc13)[C@@](C(=O)OC)(c1cc3c(cc1OC)N(C)[C@H]1[C@@](O)(C(=O)OC)[C@H](OC(C)=O)[C@]4(CC)C=CCN5CC[C@]31[C@@H]54)C2.O=C(O)C(O)C(O)C(=O)O.O=C(O)C(O)C(O)C(=O)O | 8.05% | –
NS(=O)(=O)c1cc2c(cc1Cl)N=CNS2(=O)=O [CHLOROTHIAZIDE] | 23.46% | –
CCOC(=O)OC(C)OC1=C(C(=O)Nc2ccccn2)N(C)S(=O)(=O)c2ccccc21 (configuration not stated) [AMPIROXICAM] | 31.25% | –
O=C(O)c1cc(-c2ccc(F)cc2F)ccc1O [DIFLUNISAL] | 12.12% | –
CCCCNC(=O)NS(=O)(=O)c1ccc(C)cc1 [TOLBUTAMIDE] | 35.1% | –
CC(=O)Nc1ccc(CC(=O)O)cc1 [ACTARIT] | 5.01% | –
Cc1nc2n(c(=O)c1CCN1CCC(c3noc4cc(F)ccc34)CC1)CCCC2 [RISPERIDONE] | 8.1% | –
OCc1cc(C(O)CNCCCCCCOCCCCc2ccccc2)ccc1O (configuration not stated) [SALMETEROL] | 31.88% | –
CCC1=C(C)CN(C(=O)NCCc2ccc(S(=O)(=O)NC(=O)N[C@H]3CC[C@H](C)CC3)cc2)C1=O [GLIMEPIRIDE] | 22.8% | –
CCS(=O)(=O)CCn1c([N+](=O)[O-])cnc1C [TINIDAZOLE] | 20.01% | –
